Taken from: PubChem BioAssay AID652259 (Drosophila RNAi Screening Center, 2013)
The deposit covers about 22,000 reagents; below is an unselected part of those that have a named target and a result. In the full data, 233 (1.1%) got an active call. 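Light values are raw, unnormalised plate reads; the ratio scores behind the reporter calls were not deposited.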 Entries without a mark were called inactive. A plus sign joins genes that one reagent is predicted to hit. Not given: the amount of reagent, the time to read-out, the dose of the treatment.

- Assay: 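Genome-wide hunt for genes that control Wingless pathway activity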 (primary screen)
- System: Drosophila clone 8 imaginal disc epithelial cells
- Reagents: long dsRNA against Drosophila genes
- Challenge: pathway stimulated by co-transfected Wingless expression plasmid
- Measured: 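Firefly luciferase from a tcf-site Wingless reporter, measured alongside co-transfected Renilla luciferase that tracks transfection; pathway stimulated by a Wingless plasmid; the firefly-to-Renilla ratio is not deposited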
- Reading the numbers: firefly reporter light: higher = more Wg reporter light, before normalisation; Renilla control light: higher = more transfected or surviving cells
- Rule for the call: 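Strong candidates differ from their plate mean by at least two out of four per-plate statistical tests; weak candidates meet just one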
- Meaning of the calls: active = candidate regulator (raises or lowers reporter); inactive = not a candidate

| predicted target | dsRNA | firefly reporter light, replicate 1 | firefly reporter light, replicate 2 | Renilla control light, replicate 1 | Renilla control light, replicate 2 |
| --- | --- | --- | --- | --- | --- |
| CG15414 | DRSC00429 | 4627 | 9078 | 1554 | 2921 |
| CG15414 | DRSC22353 | 6.77e5 | 6.60e5 | 3.04e5 | 3.17e5 |
| Ino80 | DRSC14760 | 13980 | – | 2118 | – |
| Ino80 | DRSC15333 | 13651 | – | 1653 | – |
| Ino80 | DRSC15501 | 8013 | – | 1413 | – |
| prage | DRSC17957 | 37440 | – | 13890 | – |
| prage | DRSC17958 | 4022 | 9920 | 784 | 1747 |
| prage | DRSC18490 | 20422 | – | 13452 | – |
| prage | DRSC18497 | 29681 | – | 16679 | – |
| Vps24 | DRSC12332 | 10968 | – | 3056 | – |
| CG15773 | DRSC18079 | 23161 | – | 8594 | – |
| pinta | DRSC14698 | 1947 | 4492 | 869 | 1468 |
| CG13325 | DRSC06362 | 7880 | – | 3136 | – |
| Cec2 | DRSC21885 | 3.78e5 | 3.86e5 | 1.76e5 | 2.07e5 |
| Nach | DRSC07478 | 5584 | – | 1818 | – |
| Oda | DRSC07626 | 4705 | – | 1188 | – |
| CatB | DRSC03194 | 7940 | – | 2553 | – |
| CG6195 | DRSC15989 | 12651 | – | 2966 | – |
| Sse | DRSC09746 | 2684 | – | 424 | – |
| CG9899 | DRSC04597 | 3479 | 9155 | 800 | 3083 |
| ND-B22 | DRSC03193 | 3382 | 9577 | 1104 | 3221 |
| CrebA | DRSC11122 | 4273 | – | 2098 | – |
| park + Targ3 | DRSC11617 | 9804 | – | 4121 | – |
| Pkcdelta | DRSC19356 | 19639 | – | 8445 | – |
| Pkcdelta | DRSC19399 | 19147 | – | 8410 | – |
| CG17169 | DRSC20905 | 16947 | – | 8467 | – |
| CG44098 | DRSC12214 | 16213 | 6.87e5 | 5075 | 3.35e5 |
| CG44098 | DRSC12240 | 7858 | – | 2825 | – |
| CG44098 | DRSC12327 | 16983 | – | 5120 | – |
| CG14075 | DRSC10080 | 11018 | – | 3093 | – |
| GXIVsPLA2 | DRSC10243 | 5792 | – | 2028 | – |
| CG30050 | DRSC05342 | 16053 | – | 10855 | – |
| CG15213 | DRSC10213 | 1265 | 14452 | 1017 | 4077 |
| CG32461 | DRSC11594 | 3781 | – | 1367 | – |
| Fcp3C | DRSC18665 | 17586 | – | 12012 | – |
| bwa | DRSC01749 | 16560 | – | 9072 | – |
| bwa | DRSC02310 | 4248 | 6976 | 912 | 3304 |
| VhaAC45RP | DRSC15423 | 4619 | – | 1175 | – |
| jeb | DRSC06305 | 6540 | – | 2469 | – |
| jeb | DRSC06307 | 5904 | – | 3172 | – |
| CG43100 (retired record) | DRSC01001 | 14279 | – | 6097 | – |
| CG4455 | DRSC01983 | 7083 | 9.14e5 | 2355 | 4.90e5 |
| CG4455 | DRSC21684 | 4.28e5 | 4.60e5 | 2.66e5 | 1.89e5 |
| CG3277 | DRSC00588 | 2003 | 4360 | 1025 | 2035 |
| CG12056 | DRSC17796 | 1515 | 6364 | 612 | 1947 |
| CG4229 | DRSC10407 | 3917 | – | 1624 | – |
| NfI | DRSC17158 | 26757 | – | 22250 | – |
| CG8891 | DRSC03120 | 4178 | 7340 | 1092 | 2213 |
| CG12811 | DRSC14549 | 13932 | – | 3010 | – |

7 successive records already listed, for reference:
| predicted target | dsRNA | firefly reporter light, replicate 1 | firefly reporter light, replicate 2 | Renilla control light, replicate 1 | Renilla control light, replicate 2 |
| --- | --- | --- | --- | --- | --- |
| Ino80 | DRSC15333 | 13651 | – | 1653 | – |
| Ino80 | DRSC15501 | 8013 | – | 1413 | – |
| prage | DRSC17957 | 37440 | – | 13890 | – |
| prage | DRSC17958 | 4022 | 9920 | 784 | 1747 |
| prage | DRSC18490 | 20422 | – | 13452 | – |
| prage | DRSC18497 | 29681 | – | 16679 | – |
| Vps24 | DRSC12332 | 10968 | – | 3056 | – |
